Results are given in words; binding and its absence hold for the method and conditions named. In cells and extracts the contact can be indirect. Some results given as binding are weak or reduced against the parent protein; the word gives no strength. Where a sequence is shown, tags or fusion partners need not be part of it.
How the values were obtained:
Assay in all cases: anti-FLAG co-IP, LC-MS/MS
[1] = molecular target: T1, Clb2 (Saccharomyces cerevisiae) (UniProt P24869)
T1 sequence (looked up): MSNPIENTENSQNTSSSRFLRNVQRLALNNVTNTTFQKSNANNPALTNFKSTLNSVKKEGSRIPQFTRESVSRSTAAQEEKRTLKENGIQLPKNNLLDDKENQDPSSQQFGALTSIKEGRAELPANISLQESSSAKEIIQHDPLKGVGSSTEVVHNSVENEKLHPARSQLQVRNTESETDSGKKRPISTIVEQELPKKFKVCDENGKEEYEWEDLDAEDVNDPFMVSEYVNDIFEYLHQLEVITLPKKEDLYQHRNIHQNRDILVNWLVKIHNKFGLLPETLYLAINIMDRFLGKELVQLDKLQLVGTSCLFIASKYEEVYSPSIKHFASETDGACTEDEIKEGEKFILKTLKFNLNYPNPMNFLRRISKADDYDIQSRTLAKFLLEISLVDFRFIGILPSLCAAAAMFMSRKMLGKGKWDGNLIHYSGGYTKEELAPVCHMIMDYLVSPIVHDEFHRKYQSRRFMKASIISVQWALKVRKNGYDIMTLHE

Sequences of proteins named here, by UniProt entry; tags and fusion partners are left off. Residues count along the entry.
UniProt P00546, residues 2-298: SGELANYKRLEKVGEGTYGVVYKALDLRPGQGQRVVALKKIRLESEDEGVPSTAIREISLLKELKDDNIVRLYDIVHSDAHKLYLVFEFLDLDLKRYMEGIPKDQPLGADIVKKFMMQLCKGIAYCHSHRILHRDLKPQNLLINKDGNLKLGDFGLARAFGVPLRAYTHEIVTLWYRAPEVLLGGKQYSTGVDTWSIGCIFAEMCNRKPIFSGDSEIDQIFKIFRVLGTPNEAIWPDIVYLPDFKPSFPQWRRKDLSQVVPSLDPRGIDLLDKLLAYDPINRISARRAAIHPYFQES

[2] = molecular target: T2, Clb3 (Saccharomyces cerevisiae) (UniProt P24870)
T2 sequence (looked up): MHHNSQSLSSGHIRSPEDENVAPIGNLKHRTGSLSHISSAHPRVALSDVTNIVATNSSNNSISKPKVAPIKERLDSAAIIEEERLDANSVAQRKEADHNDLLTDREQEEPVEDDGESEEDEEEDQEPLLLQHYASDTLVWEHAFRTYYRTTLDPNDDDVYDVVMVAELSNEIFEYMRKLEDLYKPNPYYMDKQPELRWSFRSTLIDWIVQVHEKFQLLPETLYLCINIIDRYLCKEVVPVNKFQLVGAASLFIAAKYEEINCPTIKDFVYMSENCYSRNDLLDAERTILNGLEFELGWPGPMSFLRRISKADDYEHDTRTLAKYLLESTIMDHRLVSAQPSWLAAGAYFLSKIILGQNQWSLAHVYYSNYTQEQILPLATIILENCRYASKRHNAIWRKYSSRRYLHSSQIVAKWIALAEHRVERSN

[3] = molecular target: T3, Cln2 (Saccharomyces cerevisiae) (UniProt P20438)
T3 sequence (looked up): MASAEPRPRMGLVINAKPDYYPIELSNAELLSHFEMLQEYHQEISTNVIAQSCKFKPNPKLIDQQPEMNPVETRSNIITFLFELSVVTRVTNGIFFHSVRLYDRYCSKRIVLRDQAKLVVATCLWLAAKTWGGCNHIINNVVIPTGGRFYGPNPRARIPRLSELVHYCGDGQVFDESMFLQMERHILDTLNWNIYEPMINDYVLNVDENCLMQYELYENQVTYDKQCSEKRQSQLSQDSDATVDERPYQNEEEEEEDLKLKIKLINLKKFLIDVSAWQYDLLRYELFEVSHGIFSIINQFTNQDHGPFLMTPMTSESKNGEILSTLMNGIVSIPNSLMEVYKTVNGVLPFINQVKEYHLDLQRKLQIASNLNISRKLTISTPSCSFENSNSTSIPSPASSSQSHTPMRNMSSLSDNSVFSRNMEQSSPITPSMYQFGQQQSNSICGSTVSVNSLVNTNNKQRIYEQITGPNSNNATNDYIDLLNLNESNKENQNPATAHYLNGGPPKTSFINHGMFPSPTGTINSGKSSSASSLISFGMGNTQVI

[4] = molecular target: T4, Cln1 (Saccharomyces cerevisiae) (UniProt P20437)
T4 sequence (looked up): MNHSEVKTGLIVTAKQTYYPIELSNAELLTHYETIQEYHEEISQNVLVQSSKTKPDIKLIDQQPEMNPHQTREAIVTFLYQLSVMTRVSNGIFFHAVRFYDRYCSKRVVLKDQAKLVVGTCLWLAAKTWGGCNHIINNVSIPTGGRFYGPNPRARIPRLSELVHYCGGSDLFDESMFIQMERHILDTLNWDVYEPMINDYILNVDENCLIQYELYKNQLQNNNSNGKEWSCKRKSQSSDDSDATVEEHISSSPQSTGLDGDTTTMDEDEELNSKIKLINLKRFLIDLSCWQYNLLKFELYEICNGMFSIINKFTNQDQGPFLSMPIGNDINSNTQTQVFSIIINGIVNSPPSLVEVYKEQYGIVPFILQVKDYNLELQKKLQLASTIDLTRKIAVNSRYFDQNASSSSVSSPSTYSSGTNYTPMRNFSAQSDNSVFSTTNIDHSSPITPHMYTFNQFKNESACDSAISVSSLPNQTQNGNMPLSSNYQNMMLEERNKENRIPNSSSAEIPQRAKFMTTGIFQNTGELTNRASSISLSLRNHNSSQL

[5] = molecular target: T5, Cks1 (Saccharomyces cerevisiae) (UniProt P20486)
T5 sequence (looked up): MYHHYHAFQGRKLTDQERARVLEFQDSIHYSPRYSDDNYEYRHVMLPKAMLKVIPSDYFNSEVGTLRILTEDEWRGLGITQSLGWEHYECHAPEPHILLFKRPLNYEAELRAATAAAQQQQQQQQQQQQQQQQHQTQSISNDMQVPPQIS

[6] = molecular target: T6, Clb5 (Saccharomyces cerevisiae) (UniProt P30283)
T6 sequence (looked up): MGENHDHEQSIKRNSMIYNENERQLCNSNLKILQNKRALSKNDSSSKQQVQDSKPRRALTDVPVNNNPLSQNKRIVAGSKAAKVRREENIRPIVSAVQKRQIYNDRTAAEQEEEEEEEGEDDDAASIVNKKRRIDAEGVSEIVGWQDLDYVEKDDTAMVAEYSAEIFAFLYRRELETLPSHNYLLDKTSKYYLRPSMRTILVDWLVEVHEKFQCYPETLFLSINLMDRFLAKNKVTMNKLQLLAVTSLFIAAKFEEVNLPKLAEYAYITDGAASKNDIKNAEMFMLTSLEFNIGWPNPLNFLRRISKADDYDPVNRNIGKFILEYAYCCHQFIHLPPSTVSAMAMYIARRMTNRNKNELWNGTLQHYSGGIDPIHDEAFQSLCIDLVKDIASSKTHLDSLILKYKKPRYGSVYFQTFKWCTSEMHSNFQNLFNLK

Measured: binding

Cdc28 (from UniProt P00546 2-298)
binds: all assays above

Source: patent US20030162221A1
